These are yes or no findings as the source states them, for the method shown. Some binding calls cover weakened binding; strength is not graded here.
Legend:
[1] = molecular target: Spt16ΔC (yeast) (UniProt P32558); assay: co-purification
[2] = molecular target: Spt16 (Suppressor of Ty), larger subunit of yeast FACT (yeast) (UniProt P32558); assay: co-purification

Chains of the proteins cited; added tags and fusions are not shown. Lines headed by an entry give the natural chain unless they say otherwise; changes in a name come on top. Residues count along the entry.
UniProt P32558: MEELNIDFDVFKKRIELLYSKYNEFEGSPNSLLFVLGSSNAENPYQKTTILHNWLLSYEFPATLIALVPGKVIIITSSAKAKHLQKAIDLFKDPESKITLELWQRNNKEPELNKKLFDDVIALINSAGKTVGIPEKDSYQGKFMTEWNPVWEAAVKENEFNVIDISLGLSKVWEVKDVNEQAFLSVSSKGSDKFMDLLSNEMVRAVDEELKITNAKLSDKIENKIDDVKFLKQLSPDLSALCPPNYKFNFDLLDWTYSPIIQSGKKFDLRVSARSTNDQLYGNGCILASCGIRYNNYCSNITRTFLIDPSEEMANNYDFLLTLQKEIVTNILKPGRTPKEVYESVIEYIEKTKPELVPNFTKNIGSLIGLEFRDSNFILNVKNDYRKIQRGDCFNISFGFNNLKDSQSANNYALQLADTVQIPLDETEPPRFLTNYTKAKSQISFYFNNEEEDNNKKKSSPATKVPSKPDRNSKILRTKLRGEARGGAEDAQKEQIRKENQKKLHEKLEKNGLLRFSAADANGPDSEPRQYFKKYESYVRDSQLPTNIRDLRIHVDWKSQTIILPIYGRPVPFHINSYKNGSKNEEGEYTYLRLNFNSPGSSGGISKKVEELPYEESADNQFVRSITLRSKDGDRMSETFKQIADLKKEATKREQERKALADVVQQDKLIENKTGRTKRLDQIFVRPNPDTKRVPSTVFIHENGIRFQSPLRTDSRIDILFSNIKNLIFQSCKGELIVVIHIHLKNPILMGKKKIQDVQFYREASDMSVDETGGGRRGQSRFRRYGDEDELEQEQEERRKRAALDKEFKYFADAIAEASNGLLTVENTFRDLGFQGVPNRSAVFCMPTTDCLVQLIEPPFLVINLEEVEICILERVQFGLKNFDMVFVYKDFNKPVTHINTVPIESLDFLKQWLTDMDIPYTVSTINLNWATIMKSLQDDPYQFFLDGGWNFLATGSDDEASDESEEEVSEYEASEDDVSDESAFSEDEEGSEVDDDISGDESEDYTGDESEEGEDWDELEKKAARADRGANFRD
Spt16ΔC: residues 1-958 of P32558
UniProt Q04636: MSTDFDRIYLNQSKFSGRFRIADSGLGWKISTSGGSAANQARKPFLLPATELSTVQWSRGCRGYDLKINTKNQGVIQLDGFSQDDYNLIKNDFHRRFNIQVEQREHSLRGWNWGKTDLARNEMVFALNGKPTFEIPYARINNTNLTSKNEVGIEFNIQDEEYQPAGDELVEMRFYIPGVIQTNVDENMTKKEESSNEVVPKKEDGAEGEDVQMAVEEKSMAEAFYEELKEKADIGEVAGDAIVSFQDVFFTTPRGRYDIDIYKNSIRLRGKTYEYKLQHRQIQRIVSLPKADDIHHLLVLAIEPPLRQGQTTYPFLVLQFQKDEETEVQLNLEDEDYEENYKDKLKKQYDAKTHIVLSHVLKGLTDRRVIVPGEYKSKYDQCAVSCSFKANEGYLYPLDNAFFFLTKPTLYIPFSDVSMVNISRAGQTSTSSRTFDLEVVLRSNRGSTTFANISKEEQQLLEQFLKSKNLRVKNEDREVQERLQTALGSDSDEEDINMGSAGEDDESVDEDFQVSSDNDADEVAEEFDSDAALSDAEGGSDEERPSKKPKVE

| Substance | binding [1] | binding [2] |
| --- | --- | --- |
| Pob3 (Polymerase One Binding), smaller subunit of yeast FACT (from UniProt Q04636 1-552) | binds | binds |
| Pob3ΔC (from UniProt Q04636 1-477) (domain or fragment) | binds | binds |

From article doi:10.1101/2021.07.13.452273
